In the supplement of paper PMC6078165:
Values are relative to the signal before dosing, not to a vehicle control; the signal also falls without drug.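 Labels refer to human fibroblasts, largely primary: uterine (C12385, HUF), lung (H6013), bone (Hs27A), adrenal (HADF), skin (WS1), plus mammary HMF and breast cancer-associated Hs343T. Cancer lines are basal-like or mesenchymal-like triple-negative breast cancer. The paper counts as hits responses shifting over 3x the replicate standard deviation. The tissue of the other fibroblasts is not given here.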

System: MDAMB468
Assay: relative JC-1 red fluorescence (viability) vs pre-drug, coculture with fibroblast (fraction); higher = more viable cancer cells
Experimental: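 JC-1 labelled TNBC cells cocultured 1:1 (1,500 cells each) with CellTrace Violet stained primary or stromal fibroblasts in 384-well plates in FluoroBrite medium, treated with one of 42 anticancer drugs at 0.1, 1, 10 or 100 uM. JC-1 red fluorescence (mitochondrial integrity in cancer cells only) was read by plate reader every 8 h for 72 h. Values are normalised to each well's pre-drug value. The stock of one drug was tenfold lower, so its dose labels may be too high.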

CC(=O)O[C@@]12CO[C@@H]1C[C@H](O)[C@@]1(C)C(=O)[C@H](O)C3=C(C)[C@@H](OC(=O)[C@H](O)[C@@H](NC(=O)OC(C)(C)C)c4ccccc4)C[C@@](O)([C@@H](OC(=O)c4ccccc4)[C@H]21)C3(C)C [Docetaxel]
relative JC-1 red fluorescence
Settings | 8 h | 16 h | 24 h | 32 h | 40 h | 48 h | 56 h | 64 h | 72 h
10 µM, coculture fibroblast: C12385 | 0.8651 | 0.857 | 0.838 | 0.8183 | 0.7767 | 0.781 | 0.725 | 0.71 | 0.699
10 µM, coculture fibroblast: H6013 | 0.881 | 0.902 | 0.874 | 0.8567 | 0.81185 | 0.8181 | 0.7731 | 0.765 | 0.716
10 µM, coculture fibroblast: H6019 | 0.8582 | 0.844 | 0.822 | 0.81 | 0.804 | 0.821 | 0.788 | 0.79 | 0.797
10 µM, coculture fibroblast: H6076 | 0.884 | 0.926 | 0.9012 | 0.9 | 0.839 | 0.84 | 0.813 | 0.804 | 0.867
10 µM, coculture fibroblast: H6231 | 0.8322 | 0.958 | 0.905 | 0.881 | 0.839 | 0.806 | 0.744 | 0.71 | 0.6766
10 µM, coculture fibroblast: HADF | 0.864 | 0.8565 | 0.8007 | 0.797 | 0.735 | 0.735 | 0.682 | 0.664 | 0.626
10 µM, coculture fibroblast: HCFa | 0.861 | 0.8557 | 0.8048 | 0.794 | 0.725 | 0.717 | 0.664 | 0.635 | 0.596
10 µM, coculture fibroblast: HCPF | 0.8618 | 0.964 | 0.9041 | 0.8968 | 0.8302 | 0.794 | 0.734 | 0.725 | 0.7064
10 µM, coculture fibroblast: HHSteC | 0.9105 | 0.911 | 0.881 | 0.8529 | 0.8014 | 0.798 | 0.744 | 0.721 | 0.671
10 µM, coculture fibroblast: HMF | 0.806 | 0.833 | 0.905 | 0.89 | 0.83 | 0.822 | 0.74 | 0.71 | 0.676
10 µM, coculture fibroblast: HPFa | 0.9026 | 0.9024 | 0.875 | 0.824 | 0.79 | 0.787 | 0.729 | 0.722 | 0.659
10 µM, coculture fibroblast: HUF | 0.9143 | 0.844 | 0.8058 | 0.748 | 0.71 | 0.685 | 0.647 | 0.628 | 0.623
10 µM, coculture fibroblast: Hs5 | 0.951 | 0.871 | 0.96 | 0.939 | 0.867 | 0.838 | 0.797 | 0.763 | 0.793
10 µM, coculture fibroblast: Hs27A | 0.865 | 0.88 | 0.812 | 0.814 | 0.759 | 0.763 | 0.726 | 0.71 | 0.675
10 µM, coculture fibroblast: Hs343T | 0.853 | 0.9497 | 0.878 | 0.864 | 0.7776 | 0.7427 | 0.681 | 0.656 | 0.626
10 µM, coculture fibroblast: WS1 | 0.865 | 0.818 | 0.7827 | 0.72314 | 0.6465 | 0.615 | 0.575 | 0.5438 | 0.5273
100 µM, coculture fibroblast: C12385 | 0.9157 | 0.915 | 0.875 | 0.799 | 0.76 | 0.709 | 0.648 | 0.61 | 0.586
100 µM, coculture fibroblast: H6013 | 0.858 | 0.829 | 0.823 | 0.8358 | 0.826 | 0.857 | 0.8493 | 0.863 | 0.838
100 µM, coculture fibroblast: H6019 | 0.879 | 0.834 | 0.815 | 0.76532 | 0.7288 | 0.713 | 0.674 | 0.651 | 0.646
100 µM, coculture fibroblast: H6076 | 0.9579 | 0.857 | 0.983 | 0.965 | 0.898 | 0.877 | 0.811 | 0.784 | 0.841
100 µM, coculture fibroblast: H6231 | 0.8533 | 0.924 | 0.868 | 0.882 | 0.813 | 0.793 | 0.752 | 0.731 | 0.736
100 µM, coculture fibroblast: HADF | 0.859 | 0.829 | 0.789 | 0.816 | 0.797 | 0.818 | 0.809 | 0.825 | 0.792
100 µM, coculture fibroblast: HCFa | 0.883 | 0.851 | 0.811 | 0.821 | 0.784 | 0.802 | 0.773 | 0.772 | 0.75
100 µM, coculture fibroblast: HCPF | 0.9153 | 0.808 | 0.973 | 0.96 | 0.886 | 0.832 | 0.749 | 0.72 | 0.692
100 µM, coculture fibroblast: HHSteC | 0.89258 | 0.888 | 0.865 | 0.8501 | 0.813 | 0.8453 | 0.783 | 0.774 | 0.7239
100 µM, coculture fibroblast: HMF | 0.871 | 0.847 | 0.912 | 0.883 | 0.777 | 0.7252 | 0.643 | 0.608 | 0.558
100 µM, coculture fibroblast: HPFa | 0.9374 | 0.912 | 0.893 | 0.845 | 0.822 | 0.835 | 0.782 | 0.775 | 0.725
100 µM, coculture fibroblast: HUF | 0.9244 | 0.847 | 0.80327 | 0.735 | 0.6781 | 0.6446 | 0.5921 | 0.556 | 0.537
100 µM, coculture fibroblast: Hs5 | 0.821 | 0.869 | 0.796 | 0.88 | 0.973 | 0.953 | 0.929 | 0.9122 | 0.981
100 µM, coculture fibroblast: Hs27A | 0.814 | 0.7792 | 0.747 | 0.773 | 0.745 | 0.7571 | 0.7609 | 0.758 | 0.737
100 µM, coculture fibroblast: Hs343T | 0.938 | 0.734 | 0.954 | 0.902 | 0.812 | 0.743 | 0.65 | 0.609 | 0.572
100 µM, coculture fibroblast: WS1 | 0.90697 | 0.8567 | 0.8021 | 0.737 | 0.6827 | 0.646 | 0.617 | 0.576 | 0.5591
